Reference: US20240374719A1
These are yes or no findings as the source states them, for the method shown. Some results given as binding are weak or reduced against the parent protein; the word gives no strength.

By UniProt entry, the sequences of proteins in these tests, tags left out. Where a name states a change or a piece, a line headed by the entry shows the natural chain unless it says otherwise. Chains listed by the source or under a name are the forms on record and can include a tag or linker.
cmCTLA-4 (G7PL88, form named): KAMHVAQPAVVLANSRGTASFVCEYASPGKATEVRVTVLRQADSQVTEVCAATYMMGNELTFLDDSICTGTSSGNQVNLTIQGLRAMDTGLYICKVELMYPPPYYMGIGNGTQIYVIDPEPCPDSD

Molecular target: cmCTLA-4 (Macaca fascicularis) (UniProt G7PL88)
Assay: ELISA, luminescence: antigen coated, antibody titrated [contd.) E]

B1: 4-E03 hIgG1 (anti-human CTLA-4, human IgG1) (antibody, V domains shown)
VH: EVQLLESGGGLVQPGGSLRLSCAASGFTFSDYYMSWVRQAPGKGLEWVSGISWSSRDKGYADSVKGRFTISRDNSKNTLYLQMNSLRAEDTAVYYCTTDLARYWGQGTLVTVSS
VL: QSVLTQPPSASGTPGQRVTISCTGSSSNIGAGYDVHWYQQLPGTAPKLLIYGNDNRPSGVPDRFSGSKSGTSASLAISGLRSEDEADYYCAVWDDSLNGVVFGGGTKLTVLG
- binding: binds
